From patent publication US20220096649A1
Substitutions are numbered along the chain they refer to. Results are given in words; binding and its absence hold for the method and conditions named. Some results given as binding are weak or reduced against the parent protein; the word gives no strength.

The chains behind the UniProt entries cited, without tags or fusion partners. Where a name states a change or a piece, a line headed by the entry shows the natural chain unless it says otherwise. A line that says so, or that is headed by a name, gives the form on record, which may keep a tag or linker. Residues count along the entry.
UniProt O00241, residues 30-148: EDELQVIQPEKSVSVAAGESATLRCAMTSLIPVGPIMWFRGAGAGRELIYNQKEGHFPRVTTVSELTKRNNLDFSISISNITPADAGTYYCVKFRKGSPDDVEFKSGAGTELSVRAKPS
UniProt Q9P1W8, residues 29-147: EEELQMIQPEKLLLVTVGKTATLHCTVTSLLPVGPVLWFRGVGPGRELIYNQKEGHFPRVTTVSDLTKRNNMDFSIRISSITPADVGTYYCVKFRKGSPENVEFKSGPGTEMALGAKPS
SIRP-α human v2 (P78324, form named): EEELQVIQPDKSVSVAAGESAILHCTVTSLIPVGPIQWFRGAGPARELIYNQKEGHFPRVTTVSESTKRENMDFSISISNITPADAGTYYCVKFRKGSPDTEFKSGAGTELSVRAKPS

T1: SIRP-α mouse BL6 (mouse (BL6)) (UniProt P97797)
T1 sequence (looked up): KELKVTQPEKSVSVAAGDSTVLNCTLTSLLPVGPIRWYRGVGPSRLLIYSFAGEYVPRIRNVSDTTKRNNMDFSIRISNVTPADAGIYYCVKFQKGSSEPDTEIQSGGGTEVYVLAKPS

B1: Hum1/AB21_HC_Mutall (antibody, V domains shown)
VH: EVQLVESGGGVVQPGGSLRLSCAASGFTFSSNAMSWVRQAPGKGLEWVAGISAGGSDTYYPASVKGRFTISRDNSKNTLYLQMNSLRAEDTAVYYCARETWNHLFDYWGQGTLVTVSS
VL: SYELTQPPSVSVSPGQTARITCSGGSYSSYYYAWYQQKPGQAPVTLIYSDDKRPSNIPERFSGSSSGTTVTLTISGVQAEDEADYYCGGYDQSSYTNPFGGGTKLTVL
B2: Hum9/AB21_HC_Mutall (antibody, V domains shown)
VH: B1 VH
VL: B1 VL with S26A, T45L, L46V, N56G
B3: Anti-SIRP-α antibody 119, light chain wt, heavy chain wt (antibody, V domains shown)
VH: EVQLLESGGGVVQPGGSLRLSCAASGFSFSNFAMTWVRQAPGEGLEWVSTIGSGDTYYADSVKGRFTISRDNSKNTLYLQMNSLRAEDTAVYYCAKDSTVSWSGDFFDYWGLGTLVTVSS
VL: EIVLTQSPATLSVSPGERATFSCRASQNVKNDLAWYQQRPGQAPRLLIYAARIRETGIPERFSGSGSGTEFTLTITSLQSEDFAVYYCQQYYDWPPFTFGGGTKVEIK
B4: Anti-SIRP-α antibody 135, light chain Mut, heavy chain Mut (antibody, V domains shown)
VH: B3 VH with L5V, N31I, F32Y, M34V, T35S, E43K, S53A, G54D, S101G, L112Q
VL: EIVLTQSPATLSVSPGERVTLSCRASQNVRSDIAWYQQKPGQAPRLLIYAASSRDTGIPARFSGSGSGTDFTLTISSLQSEDFGVYYCQQYYDWPPFTFGGGTKVEIK
B5: Anti-SIRP-α antibody 135, light chain wt, heavy chain Mut_V34M (antibody, V domains shown)
VH: B3 VH with L5V, N31I, F32Y, T35S, E43K, S53A, G54D, S101G, L112Q
VL: B4 VL with L21F, A60D
B6: Anti-SIRP-α antibody 119, light chain Mut, heavy chain Mut (antibody, V domains shown)
VH: B3 VH with M34V, E43K, L112Q
VL: B3 VL with F21L, R39K, E60A, T76S
B7: Anti-SIRP-α antibody 119, light chain Mut, heavy chain Mut_V34M (antibody, V domains shown)
VH: B3 VH with E43K, L112Q
VL: B3 VL with F21L, R39K, E60A, T76S
B8: Anti-SIRP-α antibody 119, light chain Mut, heavy chain wt (antibody, V domains shown)
VH: B3 VH
VL: B3 VL with F21L, R39K, E60A, T76S
B9: Anti-SIRP-α antibody 135, light chain wt, heavy chain wt (antibody, V domains shown)
VH: B3 VH with E1D, L5V, Q13R, G16E, N31I, F32Y, T35S, S53A, G54D, S101G
VL: B4 VL with L21F, A60D
B10: Anti-SIRP-α antibody 135, light chain Mut, heavy chain wt (antibody, V domains shown)
VH: B3 VH with E1D, L5V, Q13R, G16E, N31I, F32Y, T35S, S53A, G54D, S101G
VL: B4 VL
B11: Anti-SIRP-α antibody 135, light chain wt, heavy chain Mut (antibody, V domains shown)
VH: B3 VH with L5V, N31I, F32Y, M34V, T35S, E43K, S53A, G54D, S101G, L112Q
VL: B4 VL with L21F, A60D
B12: Anti-SIRP-α antibody 136, light chain Mut_I2T, heavy chain Mut_V34M (antibody, V domains shown)
VH: EVQLVESGGGVVQPGRSLRLSCAASGFTFSSYDMNWVRQAPGKGLEWVSLISGSGEIIYYADSVKGRFTISRDNSKNTLYLQMNSLRAEDTAVYYCAKENNRYRFFDDWGQGTLVTVSS
VL: ETVLTQSPGTLSLSPGERATLSCRASQSVYTYLAWYQQKPGQAPRLLIYGASSRATGIPDRFSGSGSGTEFTLTISSLQSEDFAVYYCQQYYDRPPLTFGGGTKVEIK
B13: Anti-SIRP-α antibody 136, light chain Mut, heavy chain Mut (antibody, V domains shown)
VH: B12 VH with M34V
VL: B12 VL with T2I
B14: Anti-SIRP-α antibody 136, light chain Mut_S22T, heavy chain Mut (antibody, V domains shown)
VH: B12 VH with M34V
VL: B12 VL with T2I, S22T
B15: Anti-SIRP-α antibody 136, light chain wt, heavy chain Mut (antibody, V domains shown)
VH: B12 VH with M34V
VL: B12 VL with S12T, S22T, Q38E
B16: Anti-SIRP-α antibody 136, light chain Mut_Q38E, heavy chain Mut (antibody, V domains shown)
VH: B12 VH with M34V
VL: B12 VL with T2I, Q38E
B17: Anti-SIRP-α antibody 136, light chain Mut_S12T, heavy chain Mut (antibody, V domains shown)
VH: B12 VH with M34V
VL: B12 VL with T2I, S12T
B18: Anti-SIRP-α antibody 136, light chain Mut_I2T, heavy chain Mut (antibody, V domains shown)
VH: B12 VH with M34V
VL: B12 VL
B19: Anti-SIRP-α antibody 119, light chain wt, heavy chain Mut (antibody, V domains shown)
VH: B3 VH with M34V, E43K, L112Q
VL: B3 VL

Molecular target: Human SIRPβ (human) (UniProt O00241)
Experiment: SPR, antibody on GLC chip, SIRP as analyte

| binding | Binder |
| --- | --- |
| binds | B1 |
| binds | B2 |
| binds | B3 |
| binds | B4 |
| binds | B5 |
| binds | B6 |
| binds | B7 |

Molecular target: Human SIRPγ (human) (UniProt Q9P1W8)
Experiment: SPR, antibody on GLC chip, SIRP as analyte

| binding | Binder |
| --- | --- |
| binds | B1 |
| binds | B2 |
| binds | B3 |
| binds | B8 |
| binds | B9 |
| binds | B4 |
| binds | B5 |
| binds | B6 |
| binds | B10 |
| binds | B7 |
| binds | B11 |
| binds | B12 |
| binds | B13 |
| binds | B14 |
| binds | B15 |
| binds | B16 |
| binds | B17 |
| binds | B18 |

Molecular target: SIRP-α cynomolgus (cynomolgus)
Experiment: SPR, antibody on GLC chip, SIRP as analyte

| binding | Binder |
| --- | --- |
| binds | B1 |
| binds | B2 |
| binds | B3 |
| binds | B8 |
| binds | B19 |
| binds | B9 |
| binds | B4 |
| binds | B5 |
| binds | B6 |
| binds | B10 |
| binds | B7 |
| binds | B11 |
| binds | B12 |

Molecular target: SIRP-α human v2 (human) (UniProt P78324)
Experiment: SPR, antibody on GLC chip, SIRP as analyte

| binding | Binder |
| --- | --- |
| binds | B1 |
| binds | B2 |
| binds | B3 |
| binds | B8 |
| binds | B19 |
| binds | B9 |
| binds | B4 |
| binds | B5 |
| binds | B6 |
| binds | B10 |
| binds | B7 |
| binds | B11 |

Molecular target: T1, SIRP-α mouse BL6 (mouse (BL6))
Experiment: SPR, antibody on GLC chip, SIRP as analyte

| binding | Binder |
| --- | --- |
| binds | B1 |
